For the assay, the target named is human FIXa (activated coagulation factor IX) (human) (UniProt P00740). Description: ELISA screening of hybridoma clones on coated FIXa.

Amino acid sequences for entries named in this document (tags omitted). A change or cut given only in a name is not applied to a line headed by its entry.
UniProt P00740: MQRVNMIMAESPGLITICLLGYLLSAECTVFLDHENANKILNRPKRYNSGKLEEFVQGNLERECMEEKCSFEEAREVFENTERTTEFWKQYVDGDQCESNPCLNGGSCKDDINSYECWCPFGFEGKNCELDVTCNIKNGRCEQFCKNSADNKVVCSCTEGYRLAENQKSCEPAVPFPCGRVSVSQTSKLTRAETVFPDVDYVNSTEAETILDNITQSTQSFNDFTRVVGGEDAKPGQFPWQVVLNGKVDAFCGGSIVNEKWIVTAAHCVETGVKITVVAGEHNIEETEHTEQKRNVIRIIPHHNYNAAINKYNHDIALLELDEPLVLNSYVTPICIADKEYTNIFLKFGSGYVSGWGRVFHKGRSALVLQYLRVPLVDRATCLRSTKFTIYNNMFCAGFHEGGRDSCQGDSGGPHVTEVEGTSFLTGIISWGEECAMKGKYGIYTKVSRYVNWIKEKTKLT

These are yes or no findings as the source states them, for the method shown. Binding can be weak; no strength is given.

B1: FIXa-4 antibody (antibody, V domains shown)
VH: QVTLKESGPGILKPSQTLSLTCSFSGFSLNTPGMGVGWIRQPSGKGLEWLAHIWWDDDKYYNPSLKSQLTISKDTSRNQVFLKITSVDTADTATYYCARSDDVSYALDYWGQGTSVTVSS
VL: DIQMTQSPASLSASVGETVTITCRASENIDSYLAWYQQKQGKSPQLLVYNAKTLADGVPSRFSGSGSGTQFSLKIDSLQPEDFGSHYCQHHDGTTWTFGGGTKLEIK
notes: A subtype test is described, but the isotype and constant regions are not reported; also called anti-FIXa monoclonal antibody; FIX-4 antibody
On to B1, for which the binding result is on record as “binds”.
